# Source: patent US5500410A (Gruppo Lepetit S.p.A., priority 1989, dated 1996)
# Assay: general procedure: peptide synthesis; cyanomethyl ester activation, then amine
# Details: late stage modification step, free base, acetate, hydrochloride or trifluoroacetate
substance,measurement,value
N^15 -tert-butyloxycarbonyl (t-Boc) deglucoteicoplanin,step yield,92%
